From patent publication US6806286B2, “Pyrrolecarboxamides and pyrrolethioamides as fungicides” (Syngenta Crop Protection, Inc., priority 2000, dated 2004)
Some of these results come from one statement about several compounds together. At least one structure is not confirmed: it was looked up by name or label, or the drawing left a doubt.

What follows are compounds tested on Puccinia recondita (assay: Action against Puccinia recondita/wheat (brownrust on wheat)). Details: wheat plants cv. Arina, spray 0.02% active ingredient, inoculated one day after application, assessed 10 days after inoculation.
Assay type: in vivo
For `Cn1cc(C(=O)Nc2ccsc2-c2ccc(Cl)cc2)c(C(F)(F)C(F)(F)F)c1` [Compound 2.190], the “infestation (strong efficacy)” value was under 20%.
`Cc1cn(C)cc1C(=O)Nc1snnc1-c1ccc(F)cc1` [Compound 4.12] was tested, and the “infestation (strong efficacy)” value was under 20%.
For `Cc1cn(C)cc1C(=O)Nc1ccccc1-c1ccc(F)cc1` [Compound 1.25], the “infestation (strong efficacy)” value was under 20%.
For `Cn1cc(C(=O)Nc2ccsc2-c2ccc(F)cc2)c(C(F)(F)C(F)(F)F)c1` [Compound 2.192], the “infestation (strong efficacy)” value was under 20%.
For `CC1CC(C)(C)c2cccc(NC(=O)c3cn(C)cc3C(F)(F)C(F)(F)F)c21` (racemic) [Compound 10.5], the “infestation (strong efficacy)” value was under 20%.
For `Cc1cn(C)cc1C(=O)Nc1ccsc1-c1ccc(Cl)cc1` [Compound 2.23], the “infestation (strong efficacy)” value was under 20%.
